Results are given in words; binding and its absence hold for the method and conditions named. In cells and extracts the contact can be indirect.
Target: gp78 (endogenous) (human (endogenous in HEK293)) (UniProt Q9UKV5)
Assay: co-IP; endogenous gp78 immunoprecipitated with anti-gp78 antibody from lysates of HEK293 cells transfected with Nhtt17Q, Nhtt138Q, FLAG-ATF6 or empty vector; 150 mM NaCl, 20 mM Tris pH 8.0, 5 mM EDTA, 0.5% NP40; immunoblot

The chains behind the UniProt entries cited, without tags or fusion partners.
UniProt Q9UKV5: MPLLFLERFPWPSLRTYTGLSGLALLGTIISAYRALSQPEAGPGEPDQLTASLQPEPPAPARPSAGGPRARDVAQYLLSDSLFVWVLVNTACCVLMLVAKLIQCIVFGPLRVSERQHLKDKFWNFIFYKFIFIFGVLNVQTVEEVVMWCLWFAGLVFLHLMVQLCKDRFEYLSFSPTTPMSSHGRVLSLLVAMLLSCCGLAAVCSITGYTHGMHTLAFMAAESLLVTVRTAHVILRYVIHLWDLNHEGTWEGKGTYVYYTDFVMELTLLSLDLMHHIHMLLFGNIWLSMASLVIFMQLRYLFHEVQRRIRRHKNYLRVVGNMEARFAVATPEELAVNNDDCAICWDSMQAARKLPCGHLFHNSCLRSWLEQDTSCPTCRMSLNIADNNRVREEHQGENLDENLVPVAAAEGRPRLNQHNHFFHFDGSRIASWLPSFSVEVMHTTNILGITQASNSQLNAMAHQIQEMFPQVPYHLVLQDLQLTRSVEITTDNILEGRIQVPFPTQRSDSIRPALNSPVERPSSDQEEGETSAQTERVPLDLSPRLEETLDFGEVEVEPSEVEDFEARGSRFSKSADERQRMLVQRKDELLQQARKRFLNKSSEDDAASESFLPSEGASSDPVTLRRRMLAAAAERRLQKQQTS
UniProt P18850: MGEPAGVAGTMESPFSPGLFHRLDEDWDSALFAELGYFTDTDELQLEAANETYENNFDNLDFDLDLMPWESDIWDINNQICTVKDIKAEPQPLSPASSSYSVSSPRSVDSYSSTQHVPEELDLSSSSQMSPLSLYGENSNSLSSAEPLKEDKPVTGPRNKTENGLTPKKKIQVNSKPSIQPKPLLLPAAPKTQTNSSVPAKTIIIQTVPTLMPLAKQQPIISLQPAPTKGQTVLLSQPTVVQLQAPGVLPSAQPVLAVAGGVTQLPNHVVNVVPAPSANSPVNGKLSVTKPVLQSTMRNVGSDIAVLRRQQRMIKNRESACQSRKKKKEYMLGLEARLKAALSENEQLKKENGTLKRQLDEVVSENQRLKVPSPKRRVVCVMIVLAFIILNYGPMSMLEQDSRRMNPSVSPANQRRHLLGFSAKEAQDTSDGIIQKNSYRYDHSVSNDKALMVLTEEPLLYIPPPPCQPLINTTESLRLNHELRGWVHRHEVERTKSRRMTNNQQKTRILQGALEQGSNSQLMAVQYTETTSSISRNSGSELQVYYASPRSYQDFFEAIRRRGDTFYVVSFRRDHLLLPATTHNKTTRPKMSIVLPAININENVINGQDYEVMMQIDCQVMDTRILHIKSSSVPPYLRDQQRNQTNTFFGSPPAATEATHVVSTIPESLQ

binding: no binding
Substance: FLAG-ATF6 (from UniProt P18850 1-670)

From paper PMC2811200
